Results published in PubChem BioAssay AID1347423 (Functional Genomics Laboratory (NCATS/FGL), 2020).
In all, about 52,000 sequences went through this assay and about 210 (0.4%) were called active.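 Rule for the calls: active = gene whose silencing raises cell survival under the drug, median off-target-corrected z-score across its silencing RNAs 2 or more; inactive = the rest.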 The list shows a part of the results.

Assay: Resistance to Poly (ADP-Ribose) Polymerase inhibitor: Gene Identification via Genome-wide siRNA Screen
Conditions: mouse BRCA2 R2336H ES cells, olaparib, CellTiter-Glo viability; stronger effect = higher value
Method in brief: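 Mouse BRCA2 R2336H ES cells were reverse-transfected with siRNA (20 nM final), treated at 48 h with 500 nM olaparib, and read by CellTiter-Glo after 72 h. Scores: MAD-based z per siRNA, median per gene, seed off-target correction.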

| Sequence | z-score |
| --- | --- |
| GGACAGCUUCCGAAACUAUTT against Aldrl6 | inactive: -0.0449 |
| GGCUCUCUUAGUUGUAUCATT against Mrpl35 | inactive: -1.03 |
| CCUUUACGAACCUUCUGUCTT against Als2cr4 | inactive: 0.541 |
| CGUGGUUUCAGAUUUACAATT against Magi1 | inactive: -1.53 |
| GGACAGUGACUACAAUCCATT against Znf335 | inactive: 0.338 |
| CCCAGAUCUAGACUCCGACTT against Maf1 | inactive: 2.13 |
| GGGAACUUUAGCUUAAAUUTT against E130115E03Rik | inactive: -0.963 |
| GGAAAAGCAAGUCAAUCAATT against Polk | inactive: 0.522 |
| GGCCAAGAAUUCUCUGGUCTT against Six5 | inactive: 0.371 |
| GGAUUUGAGUUACACUCAGTT against C230008H04Rik | inactive: -0.284 |
| GGGUGACACUCUGAACGUATT against Centd2 | inactive: 0.283 |
| CCCAUCCAAUGCUUAUGUGTT against Sgne1 | inactive: 0.211 |
| GGAUUUCUUCUUAUGAUGATT against 9130227C08Rik | inactive: 1.24 |
| CAGUCUACCAGAUCCUUCCTT against H2-Q8 | inactive: -1.4 |
| CCUAGAUUCUCCAAACUAATT against D630029K05Rik | inactive: 0.573 |
| GGAGGCUUUUGUAAAAUCUTT against 1700020C08Rik | inactive: -0.303 |
| CGUACUUCAGCGAUUUAAATT against Sec5l1 | inactive: -0.869 |
| GGUACUUUCGCAUCCUGCATT against 2610207P08Rik | inactive: 0.469 |
| GGUCCAUCGAAGAAGUUCUTT against Cmas | inactive: 0.15 |
| GGGUAGUCACUCAAUAAAUTT against 3110045G13Rik | inactive: 0.79 |
| GCUGGAGUAUUUACUACACTT against Ndufab1 | inactive: -1.06 |
| GGAAAGAUGAGCUGUCCUATT against 2010005H15Rik | inactive: -0.491 |
| GGGAUGUUAACCAAGCUUUTT against Cntf | inactive: 0.461 |
| GGUCUCCUUGAGUCUUCCATT against Hes3 | inactive: 0.0864 |
| UGCAGUCCAUAUCCUCAUGTT against Olfr645 | inactive: -1.18 |
| GCAGGAGUUUAACCUUCCATT against Gmppa | inactive: -1.36 |

| Sequence | z-score |
| --- | --- |
| GCAACAAACUGAGCAAAAATT against Slac2b | inactive: 1.3 |
| GCUUUUGCCCGAUGGAUUUTT against Ppap2b | inactive: 0.632 |
| GCCAAUGACCCAAAUUCUATT against B430315C20Rik | inactive: 0.412 |
| GCAACUUAAAGGCAUCUCCTT against A430083B19Rik | inactive: 0.677 |
| GCCAAAUAUUAGCGCGAAGTT against Mglap | inactive: 0.318 |
| GGUGCUGAGUUGGUCUUAUTT against Oatl1 | inactive: -1.79 |
| CGCAGGACUAUAAACUGAATT against Ptdss2 | inactive: -0.925 |
| GCACCUAAUGAUCACAGUGTT against Nrip3 | inactive: 0.48 |
| AUGGGCUGUUUAAAGUCCATT against Gm1313 | inactive: 0.00653 |
| GGACUGCUGGGAGAACUUUTT against Zcchc3 | inactive: -0.897 |
| GGUUGAGGAAACAAGACAUTT against Fbxo42 | inactive: -0.234 |
| GGAAGUUUGAGUUUGAGCUTT against Fbxl21 | inactive: 0.934 |
| GCAUAACUCCCAUCCAUAGTT against Glra2 | inactive: 1.06 |
| GGAUGAUGAGCUGAACUUUTT against Mgrn1 | inactive: -1.69 |
| GGUUAACACUAAAUGAAGATT against C330027C09Rik | inactive: -0.898 |
| GGACAGAUUCGACAAAGAGTT against Olfr1365 | inactive: 0.914 |
| GGCUCUUGUGGUUUUUGUCTT against Olfr213 | inactive: 0.574 |
| GGUGUAUGCAGACAAGUUATT against D2Ertd485e | inactive: -0.363 |
| CCGUUGAUAUCCACAUGAATT against Plod3 | inactive: 0.321 |
| CCAAAUGGGAAGAGAUUGUTT against AY534250 | inactive: 2.24 |
| GGAAAAAGAGAAAAAUCGCTT against Slc16a2 | inactive: 0.233 |
| GUCGAUCAACUCUAGGCUCTT against Rpl30 | inactive: 0.407 |
| GGAGACUUUCCAUUUGAAGTT against 2610318I01Rik | inactive: -0.0417 |
| CCUUUCAGGUGCAUAUCCATT against E130309F12Rik | inactive: -1.68 |
| GCGGAGGAGUUUUCUUCGATT against E430021N18Rik | inactive: 0.0566 |
| GCUGUAUCUGUGUCAGAACTT against 1700001O22Rik | inactive: -1.77 |

| Sequence | z-score |
| --- | --- |
| GGAUCACCUAACGUAAUGGTT against Phlda1 | inactive: 0.415 |
| GCAAAGCUGAUGCGAGCCUTT against Trip3 | inactive: 0.192 |
| GGUGCAAUCAAAUGGAAUUTT against Nrf1 | inactive: 0.297 |
| GGCAAGAAGUGUGAUGAACTT against 4632411B12Rik | inactive: 0.229 |
| GGAUAAGAAGAUGAGGCAGTT against Mns1 | inactive: -1.33 |
| GCCUAUCGAAAAGUCUUGGTT against Adcyap1 | inactive: -0.401 |
| GGUUGUCAAUGAAAUGUGCTT against Cpxm2 | inactive: 0.306 |
| GCGACAUAACUGCAUUCAATT against Kcnh1 | inactive: 0.754 |
| GGGCAUGUUUAACGACAUUTT against Csf2ra | inactive: -0.288 |
| GCCCAUUAUGGUUAAAGAATT against Ccnb3 | inactive: 0.642 |
| GCUCUCACCAUCAGAGAAATT against Trpc4 | inactive: 0.69 |
| GAAUGUCUGAGCAAGGAGGTT against 0710001E13Rik | inactive: 0.119 |
| GCACUUUCACUGACCUAGATT against Gtf2e1 | inactive: -1.14 |
| GCACCACUCUUUGUAAUAUTT against Olfr1046 | inactive: -1.99 |
| GGAUGCAUUUUUUCUGGAATT against Gltscr2 | inactive: -1.52 |
| GGAAUUUGUCUCCUGGCCUTT against Olfr1120 | inactive: 0.636 |
| GGCUAUGAAAAGAAGCCCUTT against 1200007O21Rik | inactive: 1.09 |
| GGUCAUUCAGAUUCUCGGATT against Itpa | inactive: -0.832 |
| GCUACUCCUUAAUUGGCAATT against C530024P05Rik | inactive: -0.899 |
| CGUAGCUGCCGUCAACUCUTT against Slc2a5 | inactive: -0.0254 |
| CCUAUAUUCCAUGGAUUCUTT against 2310031L18Rik | inactive: 0.266 |
| GGCAAAACUGACGUAAACUTT against Gpx4 | inactive: 0.382 |
| CCAAAGCUGAAGAUUUUGGTT against Man1b1 | inactive: -0.609 |
| GCUCUGAUCAUUUGACUUGTT against Ovca2 | inactive: 0.309 |
| GCAGUUCAACACUCAACUUTT against Grpr | inactive: 0.451 |
| GCACCUCUGACAAGGUUCUTT against Plin | inactive: 0.114 |

A few values from the results shown:
z-score, CCGUUGAUAUCCACAUGAATT against Plod3 is entered as inactive: 0.321
z-score, CAGUCUACCAGAUCCUUCCTT against H2-Q8 is entered as inactive: -1.4
z-score, GGCAAAACUGACGUAAACUTT against Gpx4 is entered as inactive: 0.382

(list continues)

| Sequence | z-score |
| --- | --- |
| GGGACUGAACUCCUGUUGGTT against Ocsp | inactive: 1.5 |
| GGUGCCACAGUUUACAUUATT against Dhrs1 | inactive: 2.8 |
| GGACCGAUUCCACUUCAAUTT against Crygd | inactive: -0.753 |
| GGGUUACCAACGACAGUGGTT against Cldn11 | inactive: 1.05 |
| GGUACUUGGUUUGAGUGGATT against Serpinb8 | inactive: -0.385 |
| CCAGUUCGAAGACCGUAUUTT against Tceal1 | inactive: -0.558 |
| CGAAUGUCUCACUCAUUGCTT against D15Ertd405e | inactive: -0.604 |
| GGGACAAAGUACCUCUCCATT against MGC59495 | inactive: -0.638 |
| GGAUGUGUCUCACUUCUUGTT against Th | inactive: 0.27 |
| CGAGCUGAACAGAAUGAUATT against Krt2-18 | inactive: -0.00799 |
| GGAAAUUGUCAGGUCCUACTT against Rad50 | inactive: -0.397 |
| GCAUAAAAUUGUGUUUCGUTT against Slc39a6 | inactive: 0.398 |
| GGAUUCUGAAGUGUAAAGATT against Icos | inactive: -0.0317 |
| GGAGAAAAUUUUGUCACUGTT against Olfr437 | inactive: 0.241 |
| GCUCUUUUUACUAUGUCAATT against Col4a3 | inactive: -0.162 |
| GGAGCAUGGUGUGUUGUGATT against 9830005G06Rik | inactive: -0.907 |
| GGAGAAUGAAGAAGAUAAUTT against Taf5l | inactive: -0.129 |
| GCCAUCAACAGCAUUUACATT against Glt8d2 | inactive: -0.324 |
| GGUCAAAUAUAUGCUUGGGTT against Chc1l | inactive: -0.461 |
| GGCUUUUAGAUUUGUUUCATT against Hspa9a | inactive: -1.41 |
| GGCUUGGGUGCAACUGAAATT against Mrps26 | inactive: -2.93 |
| GGAAUAUUGUGGCCUUAUATT against Bnip3 | inactive: -1.03 |
| GGGAUAACACUCCUGUUUUTT against F630111L10Rik | inactive: 1.17 |
| GGAACGAGACCUGAAAAUUTT against Myh11 | inactive: 0.52 |
| GGAGUAUUUUCCUCUCUGUTT against D930047P17Rik | inactive: -1.95 |

Retrieved one by one from above, 3 records:

| Sequence | z-score |
| --- | --- |
| GGGACAAAGUACCUCUCCATT against MGC59495 | inactive: -0.638 |
| GGAGUAUUUUCCUCUCUGUTT against D930047P17Rik | inactive: -1.95 |
| GGUACUUGGUUUGAGUGGATT against Serpinb8 | inactive: -0.385 |
